Data as given in the supplement of paper PMC12823440, “Inhibitors supercharge kinase turnover through native proteolytic circuits” (Nature, 2025).
Structures can show the parent of a compound that is named as a salt. The list shows a part of the results. Hit calls seldom repeat between salt and free forms of one compound.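 Kinases were expressed as nanoluciferase fusions in K562 cells and luminescence was read every 4 h between 2 and 18 h as percent of control, DMSO set to 100% and a positive control to 0%. A time point counts as decreased when the signal drops significantly (2 sigma). The hit call is the authors' own, does not follow from the count of time points alone, and its rule is not shown.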

Amino acid sequences for entries named in this document (tags omitted). A change or cut given only in a name is not applied to a line headed by its entry.
UniProt Q16288, whole entry, looked up: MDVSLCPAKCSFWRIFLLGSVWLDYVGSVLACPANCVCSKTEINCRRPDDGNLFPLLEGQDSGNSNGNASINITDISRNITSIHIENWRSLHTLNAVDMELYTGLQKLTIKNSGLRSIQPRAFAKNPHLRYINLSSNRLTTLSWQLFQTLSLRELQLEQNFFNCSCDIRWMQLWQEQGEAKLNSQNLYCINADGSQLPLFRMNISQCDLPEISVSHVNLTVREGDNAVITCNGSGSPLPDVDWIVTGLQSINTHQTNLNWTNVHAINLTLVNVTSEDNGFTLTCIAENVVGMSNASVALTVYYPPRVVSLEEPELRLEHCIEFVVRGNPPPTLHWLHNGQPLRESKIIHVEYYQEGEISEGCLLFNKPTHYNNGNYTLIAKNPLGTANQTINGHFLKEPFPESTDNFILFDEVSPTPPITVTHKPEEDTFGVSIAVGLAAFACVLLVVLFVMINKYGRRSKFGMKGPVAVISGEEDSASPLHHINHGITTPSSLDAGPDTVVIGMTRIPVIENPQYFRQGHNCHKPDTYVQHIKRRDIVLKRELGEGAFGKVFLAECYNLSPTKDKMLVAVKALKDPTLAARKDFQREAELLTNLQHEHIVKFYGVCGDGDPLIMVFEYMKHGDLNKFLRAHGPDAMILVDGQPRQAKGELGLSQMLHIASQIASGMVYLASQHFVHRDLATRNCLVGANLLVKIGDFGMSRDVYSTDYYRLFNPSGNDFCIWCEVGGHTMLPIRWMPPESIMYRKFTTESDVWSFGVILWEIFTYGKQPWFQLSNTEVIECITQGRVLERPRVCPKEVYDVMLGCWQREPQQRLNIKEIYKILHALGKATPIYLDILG
UniProt O96013: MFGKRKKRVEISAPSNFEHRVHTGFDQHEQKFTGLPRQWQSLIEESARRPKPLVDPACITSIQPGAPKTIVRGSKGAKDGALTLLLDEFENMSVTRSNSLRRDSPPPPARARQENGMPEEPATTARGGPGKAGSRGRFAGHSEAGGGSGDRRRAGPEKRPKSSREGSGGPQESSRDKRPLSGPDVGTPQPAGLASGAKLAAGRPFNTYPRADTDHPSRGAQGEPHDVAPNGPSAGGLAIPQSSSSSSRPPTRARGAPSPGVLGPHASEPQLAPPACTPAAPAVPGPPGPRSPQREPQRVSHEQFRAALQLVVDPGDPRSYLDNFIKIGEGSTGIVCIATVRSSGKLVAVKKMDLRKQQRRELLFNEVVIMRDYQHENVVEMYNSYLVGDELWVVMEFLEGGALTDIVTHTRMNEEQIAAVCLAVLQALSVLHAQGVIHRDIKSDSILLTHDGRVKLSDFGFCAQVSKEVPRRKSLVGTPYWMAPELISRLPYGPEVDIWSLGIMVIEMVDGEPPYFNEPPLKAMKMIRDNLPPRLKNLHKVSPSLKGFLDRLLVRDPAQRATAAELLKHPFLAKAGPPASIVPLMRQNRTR
UniProt Q96KB5: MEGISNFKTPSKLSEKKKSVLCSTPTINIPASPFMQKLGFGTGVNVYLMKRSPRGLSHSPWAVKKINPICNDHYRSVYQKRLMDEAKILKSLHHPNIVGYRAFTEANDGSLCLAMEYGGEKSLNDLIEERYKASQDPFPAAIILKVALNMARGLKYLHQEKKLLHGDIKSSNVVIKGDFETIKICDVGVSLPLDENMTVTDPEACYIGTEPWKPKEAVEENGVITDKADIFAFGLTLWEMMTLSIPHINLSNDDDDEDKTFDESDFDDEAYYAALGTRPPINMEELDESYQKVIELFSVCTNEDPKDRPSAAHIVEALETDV
UniProt Q15118, whole entry, looked up: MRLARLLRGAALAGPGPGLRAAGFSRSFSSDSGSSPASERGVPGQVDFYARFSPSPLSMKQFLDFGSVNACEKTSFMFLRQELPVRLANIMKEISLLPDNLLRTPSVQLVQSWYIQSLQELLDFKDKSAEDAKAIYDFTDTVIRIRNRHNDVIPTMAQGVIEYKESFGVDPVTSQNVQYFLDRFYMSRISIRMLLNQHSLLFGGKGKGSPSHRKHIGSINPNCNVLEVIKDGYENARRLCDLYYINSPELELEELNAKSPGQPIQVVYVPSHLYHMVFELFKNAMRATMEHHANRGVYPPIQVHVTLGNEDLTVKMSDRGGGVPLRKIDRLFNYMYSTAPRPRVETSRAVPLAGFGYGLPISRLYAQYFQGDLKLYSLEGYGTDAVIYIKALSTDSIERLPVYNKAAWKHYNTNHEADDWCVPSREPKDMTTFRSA
UniProt O15530: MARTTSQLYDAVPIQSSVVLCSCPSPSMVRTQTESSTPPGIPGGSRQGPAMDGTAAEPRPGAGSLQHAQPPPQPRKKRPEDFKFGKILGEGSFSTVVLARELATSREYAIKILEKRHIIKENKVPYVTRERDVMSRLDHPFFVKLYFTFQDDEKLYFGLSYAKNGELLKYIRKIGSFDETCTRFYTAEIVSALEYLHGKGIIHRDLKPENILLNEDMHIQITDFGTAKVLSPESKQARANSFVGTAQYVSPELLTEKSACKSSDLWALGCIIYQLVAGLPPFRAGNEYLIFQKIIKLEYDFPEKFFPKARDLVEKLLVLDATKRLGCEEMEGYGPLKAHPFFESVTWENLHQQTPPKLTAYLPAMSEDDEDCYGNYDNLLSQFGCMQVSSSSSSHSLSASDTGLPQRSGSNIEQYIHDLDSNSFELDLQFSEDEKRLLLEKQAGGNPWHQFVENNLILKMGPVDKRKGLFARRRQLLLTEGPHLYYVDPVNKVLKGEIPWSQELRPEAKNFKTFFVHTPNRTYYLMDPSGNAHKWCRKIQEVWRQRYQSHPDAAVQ
UniProt P42356, whole entry, looked up: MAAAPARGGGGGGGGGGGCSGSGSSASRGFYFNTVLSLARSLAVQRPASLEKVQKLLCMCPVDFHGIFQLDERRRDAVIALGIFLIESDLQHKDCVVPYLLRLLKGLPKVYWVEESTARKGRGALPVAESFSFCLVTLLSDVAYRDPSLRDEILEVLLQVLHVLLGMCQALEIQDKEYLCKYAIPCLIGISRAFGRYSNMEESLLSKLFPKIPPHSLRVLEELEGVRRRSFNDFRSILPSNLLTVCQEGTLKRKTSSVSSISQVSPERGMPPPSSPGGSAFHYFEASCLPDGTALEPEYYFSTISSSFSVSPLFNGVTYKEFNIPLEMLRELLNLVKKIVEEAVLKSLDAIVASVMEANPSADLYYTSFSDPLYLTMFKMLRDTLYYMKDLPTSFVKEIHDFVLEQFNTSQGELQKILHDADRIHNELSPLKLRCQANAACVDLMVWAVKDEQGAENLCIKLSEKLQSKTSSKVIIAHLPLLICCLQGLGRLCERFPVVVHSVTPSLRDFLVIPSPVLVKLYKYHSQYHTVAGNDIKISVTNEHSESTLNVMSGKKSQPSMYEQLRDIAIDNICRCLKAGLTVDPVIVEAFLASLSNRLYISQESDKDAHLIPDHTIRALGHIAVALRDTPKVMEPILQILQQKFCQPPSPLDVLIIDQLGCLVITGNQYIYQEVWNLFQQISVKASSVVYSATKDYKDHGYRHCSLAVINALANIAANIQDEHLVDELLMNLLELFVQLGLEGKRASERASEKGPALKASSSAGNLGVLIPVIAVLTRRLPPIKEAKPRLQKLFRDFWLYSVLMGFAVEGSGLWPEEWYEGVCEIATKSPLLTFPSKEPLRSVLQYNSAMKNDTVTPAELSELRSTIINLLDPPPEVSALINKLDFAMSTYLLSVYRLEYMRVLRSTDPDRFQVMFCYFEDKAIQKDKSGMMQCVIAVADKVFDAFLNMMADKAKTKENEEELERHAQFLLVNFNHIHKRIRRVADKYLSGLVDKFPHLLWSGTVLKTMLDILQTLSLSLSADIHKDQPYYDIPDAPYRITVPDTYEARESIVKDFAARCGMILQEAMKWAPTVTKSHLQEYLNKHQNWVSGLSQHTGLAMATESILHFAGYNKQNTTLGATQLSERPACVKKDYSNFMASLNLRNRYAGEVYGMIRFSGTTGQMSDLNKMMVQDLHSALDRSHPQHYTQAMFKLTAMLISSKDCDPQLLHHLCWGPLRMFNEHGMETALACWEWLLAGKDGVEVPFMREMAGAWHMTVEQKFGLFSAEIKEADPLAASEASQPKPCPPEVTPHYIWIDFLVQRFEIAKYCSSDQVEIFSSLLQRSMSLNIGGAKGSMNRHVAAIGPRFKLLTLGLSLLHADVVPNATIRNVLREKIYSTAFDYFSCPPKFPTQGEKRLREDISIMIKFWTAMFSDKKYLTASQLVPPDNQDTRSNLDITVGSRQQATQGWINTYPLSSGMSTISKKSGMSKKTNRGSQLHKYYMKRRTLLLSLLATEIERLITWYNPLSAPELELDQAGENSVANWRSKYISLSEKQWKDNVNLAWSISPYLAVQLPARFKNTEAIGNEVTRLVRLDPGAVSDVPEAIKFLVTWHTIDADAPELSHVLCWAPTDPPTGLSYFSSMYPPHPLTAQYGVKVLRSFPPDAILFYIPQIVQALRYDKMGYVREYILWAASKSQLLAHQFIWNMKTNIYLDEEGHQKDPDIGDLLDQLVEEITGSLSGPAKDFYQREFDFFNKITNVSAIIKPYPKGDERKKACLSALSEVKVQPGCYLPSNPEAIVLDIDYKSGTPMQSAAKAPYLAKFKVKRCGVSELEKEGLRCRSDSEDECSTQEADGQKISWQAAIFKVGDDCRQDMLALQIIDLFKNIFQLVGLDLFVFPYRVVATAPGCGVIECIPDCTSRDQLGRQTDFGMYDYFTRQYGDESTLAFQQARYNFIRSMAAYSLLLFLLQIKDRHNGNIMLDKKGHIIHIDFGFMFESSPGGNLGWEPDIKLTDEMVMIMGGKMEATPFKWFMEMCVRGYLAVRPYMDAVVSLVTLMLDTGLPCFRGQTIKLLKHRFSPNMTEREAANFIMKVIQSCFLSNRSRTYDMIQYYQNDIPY
UniProt P53350, whole entry: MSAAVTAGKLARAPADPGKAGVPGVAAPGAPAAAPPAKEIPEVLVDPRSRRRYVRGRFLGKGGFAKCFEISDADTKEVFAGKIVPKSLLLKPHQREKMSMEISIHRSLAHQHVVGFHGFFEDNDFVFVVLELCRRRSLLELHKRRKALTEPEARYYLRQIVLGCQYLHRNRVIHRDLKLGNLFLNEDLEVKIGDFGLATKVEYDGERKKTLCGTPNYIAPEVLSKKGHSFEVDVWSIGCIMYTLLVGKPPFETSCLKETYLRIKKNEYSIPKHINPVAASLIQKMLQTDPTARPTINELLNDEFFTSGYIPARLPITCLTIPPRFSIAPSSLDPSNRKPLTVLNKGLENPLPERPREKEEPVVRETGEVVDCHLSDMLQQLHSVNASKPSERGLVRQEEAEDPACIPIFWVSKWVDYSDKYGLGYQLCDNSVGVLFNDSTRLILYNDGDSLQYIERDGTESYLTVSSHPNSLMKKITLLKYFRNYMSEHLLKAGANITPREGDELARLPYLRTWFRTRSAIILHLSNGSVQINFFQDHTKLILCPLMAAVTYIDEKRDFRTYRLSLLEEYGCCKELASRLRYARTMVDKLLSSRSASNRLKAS
UniProt Q13131: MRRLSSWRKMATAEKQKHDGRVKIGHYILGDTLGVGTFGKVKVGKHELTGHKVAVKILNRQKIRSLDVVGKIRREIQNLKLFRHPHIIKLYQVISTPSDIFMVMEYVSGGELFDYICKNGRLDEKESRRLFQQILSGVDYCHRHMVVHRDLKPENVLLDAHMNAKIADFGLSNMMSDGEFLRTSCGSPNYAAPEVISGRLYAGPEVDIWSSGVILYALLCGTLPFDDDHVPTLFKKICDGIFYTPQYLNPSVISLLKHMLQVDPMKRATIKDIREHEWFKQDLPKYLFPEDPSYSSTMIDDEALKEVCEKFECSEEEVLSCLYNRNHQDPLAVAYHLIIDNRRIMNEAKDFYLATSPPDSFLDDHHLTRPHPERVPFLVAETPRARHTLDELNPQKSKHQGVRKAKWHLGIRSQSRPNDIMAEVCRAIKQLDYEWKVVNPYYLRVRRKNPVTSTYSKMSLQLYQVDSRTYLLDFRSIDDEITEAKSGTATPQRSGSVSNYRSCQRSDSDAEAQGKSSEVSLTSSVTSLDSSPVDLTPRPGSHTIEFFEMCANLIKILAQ

What was measured:
Experiment in all cases: number of time points (of 5) at which kinase-Nluc abundance scored as decreased, DMSO-normalised (count); higher = more persistent destabilization
Settings in all cases: K562; 2-18 h
NTRK3 = NTRK3 (UniProt Q16288)
PAK4 = PAK4 (UniProt O96013)
PBK = PBK (UniProt Q96KB5)
PDGFRB = PDGFRB (UniProt P09619)
PDK1 = PDK1 (UniProt Q15118)
PDPK1 = PDPK1 (UniProt O15530)
PIK4CA = PIK4CA (UniProt P42356)
PIK4CB = PIK4CB (UniProt Q9UBF8)
PLK1 = PLK1 (UniProt P53350)
PRKAA1 = PRKAA1 (UniProt Q13131)

Measured: number of time points

C[C@H](NC(=O)[C@H]1NCC[C@@H]1O)c1ccc(-c2noc(CCC3CCCC3)n2)cc1 (10 µM)
0: all assays above

O=C(O)c1cc(=O)c2c(OCC(O)COc3cccc4oc(C(=O)O)cc(=O)c34)cccc2o1 [Cromolyn (sodium)] (10 µM)
0: all assays above

O=C(Nc1cccc(C(F)(F)F)c1)c1cccc2cc(Oc3cc(CO)ncn3)ccc12 (10 µM)
0: all assays above

C[C@H](Nc1ncnc2nc[nH]c12)c1cc2cccc(Cl)c2c(=O)n1-c1ccccc1 [Duvelisib] (10 µM)
0: all assays above

Cc1cc(Nc2nc(CC3(C(=O)O)CCN(C(=O)c4cccc(Cl)c4Cl)CC3)ccc2F)n[nH]1 (10 µM)
2: NTRK3 | PDGFRB | PIK4CB
1: PDPK1
0: all other assays above

N[C@@H](CCC(=O)O)C(=O)N[C@@H](Cc1c[nH]c2ccccc12)C(=O)O [Oglufanide] (10 µM)
0: all assays above

O=C(Nc1nc2ccc(NC(=O)C34CC5CC(CC(C5)C3)C4)cc2s1)c1ccccc1 (10 µM)
0: all assays above

CN1CCC(c2ccccc2CC(C)(C)Nc2nc(N3CCOCC3)nc(-n3c(C(F)F)nc4ccccc43)n2)CC1 [Zandelisib] (10 µM)
0: all assays above

O=[N+]([O-])c1ccc2c(c1)S(=O)(=O)C=C2 [Stattic] (2.5 µM)
0: all assays above

CC(C)C[C@@H](C(=O)Nc1ccn(C[C@@H](O)CO)n1)N1CC(Oc2ccccc2Cl)=CC1=O [Dorzagliatin] (10 µM)
0: all assays above

COc1ccccc1C(=O)/C=C/c1ccccc1C(=O)O (10 µM)
0: all assays above

CC(C)S(=O)(=O)c1ccc2nccc(Nc3ccc4scnc4c3)c2c1 (10 µM)
4: PDPK1
0: all other assays above

NC(=O)c1cnc2[nH]ccc2c1N[C@@H]1[C@@H]2CC3C[C@H]1C[C@@](O)(C3)C2 [Peficitinib] (10 µM)
2: PIK4CB
1: PDPK1
0: all other assays above

COc1cc(N2CCOCC2)ccc1NC(=O)c1csc(-c2cccnc2)n1 [IRAK inhibitor 6] (10 µM)
0: all assays above

Cc1ccc(NC(=O)c2ccnc(C(F)(F)F)c2)cc1-c1cc(OCCO)nc(N2CCOCC2)c1 (10 µM)
0: all assays above

C=CC(=O)Nc1cc(-n2c(=O)ccc3cnc4ccc(-c5ccc(NS(C)(=O)=O)cc5)cc4c32)ccc1C (10 µM)
0: all assays above

COc1cc(/C=C/C(=O)N2CCC=CC2=O)cc(OC)c1OC [Piperlongumine] (2.5 µM)
5: PIK4CB
0: all other assays above

c1ccc(-c2nc3c(c(-n4ccc5cnccc54)n2)CCC3)nc1 (10 µM)
0: all assays above

C#Cc1cccc(Nc2ncnc3cc(OC)c(OCCCCCCC(=O)NO)cc23)c1 (2.5 µM)
0: all assays above

CC(C)c1cccc(C(C)C)c1N1C(=O)c2ccc(N)cc2C1=O (2.5 µM)
0: all assays above

FC(F)(F)c1ccc(/C=C/c2nc(COc3ccc(CCCCn4ccnn4)cc3)co2)cc1 [Mubritinib] (10 µM)
1: PDPK1
0: all other assays above

CCc1cccc(CC)c1NC(=O)N1Cc2[nH]nc(NC(=O)c3ccc(N4CCN(C)CC4)cc3)c2C1 (2.5 µM)
4: PDPK1
0: PAK4 | PBK | PDK1 | PLK1
2: all other assays above

COc1cc2ncnc(Nc3ccccc3)c2cc1OC (10 µM)
0: all assays above

O=C1/C(=C\c2ccc(Cl)cc2)C=C(c2ccccc2)N1c1ccc(O)cc1 (2.5 µM)
0: all assays above

CS(=O)(=O)c1ccc(-c2cnc(N)c(-c3ccc(C(F)(F)F)nc3)c2)cc1 (10 µM)
0: all assays above

Cc1cc2sc(NC(=O)Cc3ccccc3)nc2cc1Cl (10 µM)
0: all assays above

O=C1O[C@H]([C@@H](O)CO)C(O)=C1OP(=O)(O)O [2-Phospho-L-ascorbic acid (trisodium)] (10 µM)
0: all assays above

Two records picked at random from the list so far:
C[C@H](Nc1ncnc2nc[nH]c12)c1cc2cccc(Cl)c2c(=O)n1-c1ccccc1 [Duvelisib] (10 µM)
0: all assays above

CC(C)C[C@@H](C(=O)Nc1ccn(C[C@@H](O)CO)n1)N1CC(Oc2ccccc2Cl)=CC1=O [Dorzagliatin] (10 µM)
0: all assays above

The listing continues.

CC(C)(C)n1nc(Cc2ccccc2O)c2c(N)ncnc21 (10 µM)
0: all assays above

O=C(NC1CCOCC1)c1ccc(-c2cc(-c3c[nH]nc3-c3ccccn3)ccn2)cc1 (10 µM)
0: all assays above

CN1C(=O)[C@@H](NC(=O)c2n[nH]c(Cc3ccccc3)n2)COc2ccccc21 (10 µM)
0: all assays above

Oc1ccc(/C=C/c2cc(O)cc(O)c2)cc1 [Resveratrol] (10 µM)
0: all assays above

C=CC(=O)Nc1cccc(-c2cccc3cnc(Nc4ccc(N5CCN(CCO)CC5)c(F)c4F)nc23)c1 [Olafertinib] (2.5 µM)
0: all assays above

CCc1ccc(OCC(=O)Nc2ccc(F)c([N+](=O)[O-])c2)cc1 (10 µM)
0: all assays above

O=c1[nH]c(C2CCCN2)nc2c1oc1ccc(Cl)cc12 (stereo not given) [XL413 (hydrochloride)] (10 µM)
0: all assays above

COc1nn(C)cc1Nc1nccc(-c2c[nH]c3c(NC(=O)[C@@H](C)N4CCN(C)CC4)cccc23)n1 (10 µM)
0: all assays above

Cc1ncc(NC(=O)NC2c3ccccc3-c3ccccc32)c(-c2ccccc2)n1 (10 µM)
0: all assays above

O=C(Nc1nc(=O)n(Cc2ccc(Cl)cc2)s1)c1ccc(Cl)cc1 (10 µM)
0: all assays above

O=C(Nc1nc2ccccc2[nH]1)c1cccc([N+](=O)[O-])c1 [IRAK-4 protein kinase inhibitor 2] (10 µM)
0: all assays above
